Values quoted from earlier work in patent US6121315A, “Oral compositions containing a zinc compound” (priority 1999, dated 2000).

Conditions: 5% by weight in water, nine-person taste panel; cited from earlier work

**Q.** For `CC1CCC(C(C)C)C(OC(=O)CCC(=O)[O-])C1.[Na+]` (stereo not shown) [sodium monomenthyl succinate], which taste is on record?
**A.** vile and bitter
